Laboratory results reported in PMC3999190.
Where two headings read alike, the source gives them in different places. No constants are given. Whether binding was seen depends on the method and setting. For some assays here: Binding seen in cells or lysates may run through a third protein. Some entries that bind do so weakly or less than the wild type. For some assays here: Tags and fused reporters may be left off the sequences shown.

By UniProt entry, the sequences of proteins in these tests, tags left out. Residues count along the entry.
UniProt P15187, residues 1-296: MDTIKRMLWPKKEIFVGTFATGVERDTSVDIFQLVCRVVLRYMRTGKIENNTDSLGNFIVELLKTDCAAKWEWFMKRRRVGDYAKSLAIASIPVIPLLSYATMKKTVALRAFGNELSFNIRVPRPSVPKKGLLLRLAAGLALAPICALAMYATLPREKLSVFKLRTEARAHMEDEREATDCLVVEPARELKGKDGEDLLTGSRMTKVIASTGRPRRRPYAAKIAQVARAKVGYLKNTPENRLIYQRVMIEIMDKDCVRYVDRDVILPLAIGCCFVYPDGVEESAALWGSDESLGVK
UniProt Q9ZNT0: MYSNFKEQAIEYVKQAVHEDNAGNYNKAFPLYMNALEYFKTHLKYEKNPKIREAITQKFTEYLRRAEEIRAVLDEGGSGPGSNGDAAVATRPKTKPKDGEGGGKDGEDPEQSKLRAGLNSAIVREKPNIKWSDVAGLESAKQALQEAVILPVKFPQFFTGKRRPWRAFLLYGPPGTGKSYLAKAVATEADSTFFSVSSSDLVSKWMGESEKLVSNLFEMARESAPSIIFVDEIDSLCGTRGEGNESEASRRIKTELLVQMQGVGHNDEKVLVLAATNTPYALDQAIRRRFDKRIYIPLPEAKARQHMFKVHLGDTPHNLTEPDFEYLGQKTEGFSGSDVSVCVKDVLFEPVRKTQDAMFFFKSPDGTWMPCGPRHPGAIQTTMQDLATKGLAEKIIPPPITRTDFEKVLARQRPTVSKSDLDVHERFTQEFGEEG
UniProt P10591: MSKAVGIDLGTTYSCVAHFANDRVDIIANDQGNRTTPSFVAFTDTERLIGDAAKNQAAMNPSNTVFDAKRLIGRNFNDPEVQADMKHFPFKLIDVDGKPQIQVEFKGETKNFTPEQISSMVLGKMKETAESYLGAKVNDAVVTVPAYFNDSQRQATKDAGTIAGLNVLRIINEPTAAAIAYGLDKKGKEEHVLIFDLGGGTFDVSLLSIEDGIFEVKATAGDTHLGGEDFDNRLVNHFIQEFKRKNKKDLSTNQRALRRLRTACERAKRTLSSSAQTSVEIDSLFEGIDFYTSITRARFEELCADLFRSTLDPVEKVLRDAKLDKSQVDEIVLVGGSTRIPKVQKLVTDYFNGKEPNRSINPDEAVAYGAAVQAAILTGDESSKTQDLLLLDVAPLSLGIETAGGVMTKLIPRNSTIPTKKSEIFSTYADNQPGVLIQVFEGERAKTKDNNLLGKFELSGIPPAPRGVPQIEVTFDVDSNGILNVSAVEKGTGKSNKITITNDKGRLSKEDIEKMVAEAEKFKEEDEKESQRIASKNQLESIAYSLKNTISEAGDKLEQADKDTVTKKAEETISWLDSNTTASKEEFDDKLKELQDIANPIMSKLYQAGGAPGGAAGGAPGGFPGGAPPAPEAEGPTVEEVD

T1: FLAG-tagged tombusvirus p33 replication protein expressed in yeast (not stated (tombusvirus; TBSV implied)) (UniProt P15962)
T1 sequence: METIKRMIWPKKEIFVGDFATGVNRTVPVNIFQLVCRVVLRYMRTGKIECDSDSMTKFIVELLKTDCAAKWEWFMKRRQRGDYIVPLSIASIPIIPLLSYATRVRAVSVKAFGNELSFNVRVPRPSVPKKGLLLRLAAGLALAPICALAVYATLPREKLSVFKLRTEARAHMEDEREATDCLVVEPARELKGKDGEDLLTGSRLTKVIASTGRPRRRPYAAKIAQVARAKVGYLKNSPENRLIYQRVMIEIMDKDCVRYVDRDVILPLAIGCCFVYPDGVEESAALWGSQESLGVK

T2: tombusvirus p33 replication protein, split-ubiquitin bait (not stated (tombusvirus; TBSV implied)) (UniProt P15962)
T2 sequence: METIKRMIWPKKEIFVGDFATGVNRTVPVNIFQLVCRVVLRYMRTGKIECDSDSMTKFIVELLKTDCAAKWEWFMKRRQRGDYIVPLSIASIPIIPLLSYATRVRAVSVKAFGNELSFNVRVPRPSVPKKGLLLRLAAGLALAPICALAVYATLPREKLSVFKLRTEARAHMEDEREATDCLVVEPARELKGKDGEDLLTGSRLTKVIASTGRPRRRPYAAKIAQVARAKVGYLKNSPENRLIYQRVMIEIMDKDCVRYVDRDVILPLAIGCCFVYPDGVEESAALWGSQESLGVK

B1: full-length yeast Vps4p, split-ubiquitin prey (construct 1-437) (protein, UniProt P52917 1-437)
chain: MSTGDFLTKGIELVQKAIDLDTATQYEEAYTAYYNGLDYLMLALKYEKNPKSKDLIRAKFTEYLNRAEQLKKHLESEEANAAKKSPSAGSGSNGGNKKISQEEGEDNGGEDNKKLRGALSSAILSEKPNVKWEDVAGLEGAKEALKEAVILPVKFPHLFKGNRKPTSGILLYGPPGTGKSYLAKAVATEANSTFFSVSSSDLVSKWMGESEKLVKQLFAMARENKPSIIFIDEVDALTGTRGEGESEASRRIKTELLVQMNGVGNDSQGVLVLGATNIPWQLDSAIRRRFERRIYIPLPDLAARTTMFEINVGDTPCVLTKEDYRTLGAMTEGYSGSDIAVVVKDALMQPIRKIQSATHFKDVSTEDDETRKLTPCSPGDDGAIEMSWTDIEADELKEPDLTIKDFLKAIKSTRPTVNEDDLLKQEQFTRDFGQEGN
B2: His6-tagged Vps2p expressed in yeast (protein, UniProt P36108 1-232)
chain: MSLFEWVFGKNVTPQERLKKNQRALERTQRELEREKRKLELQDKKLVSEIKKSAKNGQVAAAKVQAKDLVRTRNYIQKFDNMKAQLQAISLRIQAVRSSDQMTRSMSEATGLLAGMNRTMNLPQLQRISMEFEKQSDLMGQRQEFMDEAIDNVMGDEVDEDEEADEIVNKVLDEIGVDLNSQLQSTPQNLVSNAPIAETAMGIPEPIGAGSEFHGNPDDDLQARLNTLKKQT
B3: His6-tagged Vps20p expressed in yeast (protein, UniProt Q04272 1-221)
chain: MGQKSSKVHITKTDRAILEVKRSKDEIHKFTRRTDNLILVEKSQLKDLIRKNPENYKSNMKVRFLLKRIHYQEHLLQQASDQLINLENMVSTLEFKMVEKQFINGLKNGNEILKKLNKEFSNVDELMDDVQDQIAYQNEINETLSRSLVGTSNYEDDLDKELDALESELNPEKMNNAKVANMPSTEGLPSLPQGEQTEQKEREEFATEERSDTKEPLALLS
B4: His6-tagged Vps24p expressed in yeast (protein, UniProt P36095 1-224)
chain: MDYIKKAIWGPDPKEQQRRIRSVLRKNGRNIEKSLRELTVLQNKTQQLIKKSAKKNDVRTVRLYAKELYQINKQYDRMYTSRAQLDSVRMKIDEAIRMNTLSNQMADSAGLMREVNSLVRLPQLRNTMIELEKELMKSGIISEMVDDTMESVGDVGEEMDEAVDEEVNKIVEQYTNEKFKNVDQVPTVELAANEEEQEIPDEKVDEEADRMVNEMRERLRALQN
B5: His6-tagged Vps4p expressed in yeast (protein, UniProt P52917 1-437)
chain: MSTGDFLTKGIELVQKAIDLDTATQYEEAYTAYYNGLDYLMLALKYEKNPKSKDLIRAKFTEYLNRAEQLKKHLESEEANAAKKSPSAGSGSNGGNKKISQEEGEDNGGEDNKKLRGALSSAILSEKPNVKWEDVAGLEGAKEALKEAVILPVKFPHLFKGNRKPTSGILLYGPPGTGKSYLAKAVATEANSTFFSVSSSDLVSKWMGESEKLVKQLFAMARENKPSIIFIDEVDALTGTRGEGESEASRRIKTELLVQMNGVGNDSQGVLVLGATNIPWQLDSAIRRRFERRIYIPLPDLAARTTMFEINVGDTPCVLTKEDYRTLGAMTEGYSGSDIAVVVKDALMQPIRKIQSATHFKDVSTEDDETRKLTPCSPGDDGAIEMSWTDIEADELKEPDLTIKDFLKAIKSTRPTVNEDDLLKQEQFTRDFGQEGN
B6: His6-tagged N-terminally truncated Vps4p (101-437) expressed in yeast (domain or fragment, UniProt P52917 101-437)
chain: QEEGEDNGGEDNKKLRGALSSAILSEKPNVKWEDVAGLEGAKEALKEAVILPVKFPHLFKGNRKPTSGILLYGPPGTGKSYLAKAVATEANSTFFSVSSSDLVSKWMGESEKLVKQLFAMARENKPSIIFIDEVDALTGTRGEGESEASRRIKTELLVQMNGVGNDSQGVLVLGATNIPWQLDSAIRRRFERRIYIPLPDLAARTTMFEINVGDTPCVLTKEDYRTLGAMTEGYSGSDIAVVVKDALMQPIRKIQSATHFKDVSTEDDETRKLTPCSPGDDGAIEMSWTDIEADELKEPDLTIKDFLKAIKSTRPTVNEDDLLKQEQFTRDFGQEGN
B7: His6-tagged Pex19p peroxisomal shuttle protein expressed in yeast (protein, UniProt Q07418 1-342)
chain: MNENEYDNFDDLDDLLDEDPTKLDEAEPDDVQAKGSVYNDSENKEKNAESKDSDGVQVANESEEDPELKEMMVDLQNEFANLMKNNGNENNVKTEDFNKLISALEEAAKVPHQQMEQGCSSLKSNSTDKGTVNGSNPGFKNIVSNTLDRLKENGNKVDTSLAEETKESQRSGQNNNIDDILSQLLDQMVASGGKESAENQFDLKDGEMDDAITKILDQMTSKEVLYEPMKEMRSEFGVWFQENGENEEHKEKIGTYKRQFNIVDEIVNIYELKDYDELKHKDRVTELLDELEQLGDSPIRSANSPLKHGNEEEELMKMLEIDGNDPNLGNLDKELTDGCKQQ
B8: Vps2p ESCRT-III protein, split-ubiquitin prey (protein, UniProt P36108 1-232)
chain: MSLFEWVFGKNVTPQERLKKNQRALERTQRELEREKRKLELQDKKLVSEIKKSAKNGQVAAAKVQAKDLVRTRNYIQKFDNMKAQLQAISLRIQAVRSSDQMTRSMSEATGLLAGMNRTMNLPQLQRISMEFEKQSDLMGQRQEFMDEAIDNVMGDEVDEDEEADEIVNKVLDEIGVDLNSQLQSTPQNLVSNAPIAETAMGIPEPIGAGSEFHGNPDDDLQARLNTLKKQT
B9: Vps20p ESCRT-III protein, split-ubiquitin prey (protein, UniProt Q04272 1-221)
chain: MGQKSSKVHITKTDRAILEVKRSKDEIHKFTRRTDNLILVEKSQLKDLIRKNPENYKSNMKVRFLLKRIHYQEHLLQQASDQLINLENMVSTLEFKMVEKQFINGLKNGNEILKKLNKEFSNVDELMDDVQDQIAYQNEINETLSRSLVGTSNYEDDLDKELDALESELNPEKMNNAKVANMPSTEGLPSLPQGEQTEQKEREEFATEERSDTKEPLALLS
B10: Vps24p ESCRT-III protein, split-ubiquitin prey (protein, UniProt P36095 1-224)
chain: MDYIKKAIWGPDPKEQQRRIRSVLRKNGRNIEKSLRELTVLQNKTQQLIKKSAKKNDVRTVRLYAKELYQINKQYDRMYTSRAQLDSVRMKIDEAIRMNTLSNQMADSAGLMREVNSLVRLPQLRNTMIELEKELMKSGIISEMVDDTMESVGDVGEEMDEAVDEEVNKIVEQYTNEKFKNVDQVPTVELAANEEEQEIPDEKVDEEADRMVNEMRERLRALQN

Columns and labels:
[1] = target: FLAG-tagged p33 replication protein derived from cucumber necrosis virus, expressed in N. benthamiana (cucumber necrosis virus) (UniProt P15187); assay: co-IP; FLAG-affinity purification of FLAG-tagged p33 from detergent-solubilized membrane fraction of N. benthamiana leaves co-expressing His6-AtVps4, p33 and p19; anti-His Western blot
[2] = target: T1, FLAG-tagged tombusvirus p33 replication protein expressed in yeast (not stated (tombusvirus; TBSV implied)); assay: co-IP; FLAG-affinity purification of the replicase via FLAG-p33 from solubilized (NP-40) membrane fraction of yeast also expressing His6-p92 and DI-72 repRNA, after 1% formaldehyde cross-linking; anti-His Western blot; in Fig. 2B cycloheximide (100 µg/ml) for 0, 60 and 150 min
[3] = target: T2, tombusvirus p33 replication protein, split-ubiquitin bait (not stated (tombusvirus; TBSV implied)); assay: two-hybrid; split-ubiquitin membrane yeast two-hybrid (MYTH, Dualsystems) in yeast NMY51; p33 bait, NubG preys; serial dilutions spotted on TLHA- plates
[4] = target: T2, tombusvirus p33 replication protein, split-ubiquitin bait (not stated (tombusvirus; TBSV implied)); assay: as above; remark: listed apart in the source
[5] = target: T1, FLAG-tagged tombusvirus p33 replication protein expressed in yeast (not stated (tombusvirus; TBSV implied)); assay: co-IP; FLAG-affinity purification of FLAG-p33 (FLAG M2-agarose) from solubilized membrane fraction of yeast BY4741 after 1% formaldehyde cross-linking; His6-tagged host proteins detected with anti-His antibody

Molecule | binding [2] | binding [4] | binding [5] | further results
His6-tagged Arabidopsis thaliana Vps4 expressed in N. benthamiana (from UniProt Q9ZNT0 1-435) |  |  |  | binding [1]: binds
His6-tagged Ssa1p Hsp70 expressed in yeast (from UniProt P10591 1-642) | binds |  |  | 
Vps4p N-terminal MIT domain, split-ubiquitin prey (construct 1-100) (from UniProt P52917 1-100) (domain or fragment) |  |  |  | binding [3]: binds
B1 |  | binds |  | 
B2 |  |  | binds | 
B3 |  |  | binds | 
B4 |  |  | binds | 
B5 | binds |  | binds | 
B6 | binds |  |  | 
B7 | binds |  |  | 
B8 |  | binds |  | 
B9 |  | binds |  | 
B10 |  | binds |  | 
